{"source": "PubChem BioAssay AID330", "about": "(DTP/NCI, 2004)", "system": "P388 leukemia ip, CD2F1 mice, survival T/C", "assay": "NCI In Vivo Anticancer Drug Screen. Data for tumor model P388 Leukemia (intraperitoneal) in CD2F1 (CDF1) mice", "details": "T/C endpoint: median survival time, higher T/C = longer survival", "key": {"[1]": {"details": "dose: 16.0 mg/kg/injection, schedule: Q01DX009 (ip), vehicle: Klucel (hydroxypropylcellulose) (HPC)"}}, "note": "The list is a part of this screen's results and no random one: it gathers tests that were run many times, whatever their T/C, doses with no T/C, and many T/C values between a quarter and a half above the control. Further doses and runs are listed elsewhere. T/C gives the treated animals as a percentage of the vehicle group. Some entries give survivors of the animals treated and no T/C: the source holds a T/C of zero for them, seemingly a mark for toxic or unscored doses. Some doses without a T/C left all or most animals alive at the check, yet need not have been tolerated: survival well below the control is almost never listed, so the zero probably covers shortened survival too. Survivors were counted at the toxicity check, usually on the fifth day, unless a day is given; later deaths do not show. Schedules are NCI's codes, read here as Q, the interval in days (D) or hours (H), X, the number of doses. Counts like (3×) count equal records among those shown. Some entries were tested several times; the results are listed from low to high. Where survival is the endpoint, this PubChem deposit counts one and a half times the control or more as active, and values a quarter to a half above the control carry no call in these data; other NCI protocols may use other cut-offs. Some T/C values carry the count of animals alive at the toxicity check (mostly the fifth day); without a count, all were alive then.", "data": [{"molecule": "O=NN(CCCl)C(=O)NCCCl", "values": [{"measurement": "T/C", "setting": "dose: 16.0 mg/kg/injection, schedule: Q01DX001 (ip), vehicle: saline + alcohol, evaluated on day 30", "result": "162 and 180 % of control"}, {"measurement": "T/C", "setting": "[1]", "result": "103, 110, 140 % of control"}, {"measurement": "survivor count", "setting": "[1]", "result": "6 of 6"}, {"measurement": "T/C", "setting": "dose: 16.0 mg/kg/injection, schedule: Q01DX009 (ip), vehicle: saline + alcohol, evaluated on day 30", "result": "89, 94, 96, 104, 109 % of control"}, {"measurement": "T/C", "setting": "dose: 16.0 mg/kg/injection, schedule: Q01DX009 (ip), vehicle: saline + alcohol, evaluated on day 35", "result": "121 % of control"}, {"measurement": "T/C", "setting": "dose: 16.0 mg/kg/injection, schedule: Q01DX009 (ip), vehicle: saline + alcohol, evaluated on day 45", "result": "96 % of control"}, {"measurement": "T/C", "setting": "dose: 16.0 mg/kg/injection, schedule: Q01DX009 (ip), vehicle: saline, evaluated on day 30", "result": "86, 87, 99 (2×), 106, 122, 128, 133, 135, 138, 139, 172 % of control"}, {"measurement": "T/C", "setting": "dose: 16.0 mg/kg/injection, schedule: Q01DX009 (ip), vehicle: saline, evaluated on day 60", "result": "109, 113, 118, 135 % of control"}, {"measurement": "T/C", "setting": "dose: 20.0 mg/kg/injection, schedule: Q01DX001 (ip), vehicle: saline + alcohol, evaluated on day 8", "result": "185 % of control"}, {"measurement": "T/C", "setting": "dose: 20.0 mg/kg/injection, schedule: Q01DX001 (ip), vehicle: saline + alcohol, evaluated on day 30", "result": "130, 149, 166, 182, 183, 184, 186, 188, 190, 194 (2×), 197, 198, 200, 202, 203 (2×), 205 (2×), 211, 212, 216, 247, 257, 263, 300 (2×), 309 % of control"}, {"measurement": "T/C", "setting": "dose: 20.0 mg/kg/injection, schedule: Q01DX001 (ip), vehicle: saline + alcohol, evaluated on day 35", "result": "260 % of control"}, {"measurement": "T/C", "setting": "dose: 20.0 mg/kg/injection, schedule: Q01DX001 (ip), vehicle: saline + alcohol, evaluated on day 44", "result": "207 and 216 % of control"}, {"measurement": "T/C", "setting": "dose: 20.0 mg/kg/injection, schedule: Q01DX001 (ip), vehicle: saline + alcohol, evaluated on day 45", "result": "228 and 405 % of control"}, {"measurement": "T/C", "setting": "dose: 20.0 mg/kg/injection, schedule: Q01DX001 (ip), vehicle: saline + alcohol, evaluated on day 60", "result": "174, 187 [5 of 6 alive], 235, 252, 566 % of control (2×)"}, {"measurement": "T/C", "setting": "dose: 30.0 mg/kg/injection, schedule: Q01DX001 (ip), vehicle: saline + alcohol, evaluated on day 44", "result": "241 and 250 % of control"}, {"measurement": "T/C", "setting": "dose: 30.0 mg/kg/injection, schedule: Q01DX001 (ip), vehicle: saline + alcohol, evaluated on day 45", "result": "394 and 405 % of control"}, {"measurement": "T/C", "setting": "dose: 30.0 mg/kg/injection, schedule: Q01DX001 (ip), vehicle: saline + alcohol, evaluated on day 60", "result": "566 (2×), 576, 606 % of control"}, {"measurement": "survivor count", "setting": "dose: 30.0 mg/kg/injection, schedule: Q01DX005 (ip), vehicle: Klucel (hydroxypropylcellulose) (HPC)", "result": "6 of 6"}, {"measurement": "T/C", "setting": "dose: 30.0 mg/kg/injection, schedule: Q01DX005 (ip), vehicle: saline + alcohol, evaluated on day 30", "result": "88 (2×), 89, 93, 97, 107, 108, 109, 110, 111, 113, 133, 152, 223, 300 % of control"}, {"measurement": "T/C", "setting": "dose: 30.0 mg/kg/injection, schedule: Q01DX005 (ip), vehicle: saline + alcohol, evaluated on day 35", "result": "90 % of control"}, {"measurement": "T/C", "setting": "dose: 30.0 mg/kg/injection, schedule: Q01DX005 (ip), vehicle: saline + alcohol, evaluated on day 60", "result": "94 % of control"}, {"measurement": "survivor count", "setting": "dose: 30.0 mg/kg/injection, schedule: Q01DX005 (ip), vehicle: saline + alcohol", "result": "6 of 6 (2×)"}, {"measurement": "survivor count", "setting": "dose: 30.0 mg/kg/injection, schedule: Q01DX009 (ip), vehicle: Klucel (hydroxypropylcellulose) (HPC)", "result": "6 of 6"}, {"measurement": "T/C", "setting": "dose: 30.0 mg/kg/injection, schedule: Q01DX009 (ip), vehicle: saline + alcohol, evaluated on day 30", "result": "87, 88, 93, 97, 99, 100 (2×), 100 [5 of 6 alive], 104, 105, 107, 113 % of control"}, {"measurement": "T/C", "setting": "dose: 30.0 mg/kg/injection, schedule: Q01DX009 (ip), vehicle: saline + alcohol, evaluated on day 35", "result": "87 % of control"}, {"measurement": "survivor count", "setting": "dose: 30.0 mg/kg/injection, schedule: Q01DX009 (ip), vehicle: saline + alcohol", "result": "6 of 6 (2×)"}, {"measurement": "T/C", "setting": "dose: 32.0 mg/kg/injection, schedule: Q01DX001 (ip), vehicle: saline + alcohol, evaluated on day 9", "result": "189 and 275 % of control"}, {"measurement": "T/C", "setting": "dose: 32.0 mg/kg/injection, schedule: Q01DX001 (ip), vehicle: saline + alcohol, evaluated on day 30", "result": "198 and 209 % of control"}, {"measurement": "survivor count", "setting": "dose: 32.0 mg/kg/injection, schedule: Q01DX009 (ip), vehicle: saline with Tween-80", "result": "10 of 10"}, {"measurement": "T/C", "setting": "dose: 40.0 mg/kg/injection, schedule: Q01DX001 (ip), vehicle: saline + alcohol, evaluated on day 8", "result": "284 % of control"}, {"measurement": "T/C", "setting": "dose: 40.0 mg/kg/injection, schedule: Q01DX001 (ip), vehicle: saline + alcohol, evaluated on day 30", "result": "95, 208, 217, 226, 235, 247, 250 (2×), 254, 259, 265 (3×), 277, 285, 287, 294 (3×), 297 (3×), 300 (4×), 303, 309 % of control"}, {"measurement": "T/C", "setting": "dose: 40.0 mg/kg/injection, schedule: Q01DX001 (ip), vehicle: saline + alcohol, evaluated on day 35", "result": "350 % of control"}, {"measurement": "T/C", "setting": "dose: 40.0 mg/kg/injection, schedule: Q01DX001 (ip), vehicle: saline + alcohol, evaluated on day 44", "result": "110 and 198 % of control"}, {"measurement": "T/C", "setting": "dose: 40.0 mg/kg/injection, schedule: Q01DX001 (ip), vehicle: saline + alcohol, evaluated on day 45", "result": "394 % of control"}, {"measurement": "T/C", "setting": "dose: 40.0 mg/kg/injection, schedule: Q01DX001 (ip), vehicle: saline + alcohol, evaluated on day 60", "result": "256, 576, 582 % of control"}, {"measurement": "survivor count", "setting": "dose: 40.0 mg/kg/injection, schedule: Q04DX003 (ip), vehicle: saline + alcohol", "result": "5 of 6"}, {"measurement": "survivor count", "setting": "dose: 40.0 mg/kg/injection, schedule: Q04DX003 (iv), vehicle: saline + alcohol", "result": "6 of 6"}, {"measurement": "survivor count", "setting": "dose: 50.0 mg/kg/injection, schedule: Q01DX005 (ip), vehicle: saline with Tween-80", "result": "6 of 6"}, {"measurement": "survivor count", "setting": "dose: 60.0 mg/kg/injection, schedule: Q01DX001 (iv), vehicle: saline + alcohol", "result": "3 of 6"}, {"measurement": "T/C", "setting": "dose: 64.0 mg/kg/injection, schedule: Q01DX001 (ip), vehicle: Klucel (hydroxypropylcellulose) (HPC)", "result": "132 % of control"}, {"measurement": "T/C", "setting": "dose: 64.0 mg/kg/injection, schedule: Q01DX001 (ip), vehicle: saline + alcohol, evaluated on day 9", "result": "92 and 112 % of control"}, {"measurement": "T/C", "setting": "dose: 64.0 mg/kg/injection, schedule: Q01DX001 (ip), vehicle: saline + alcohol, evaluated on day 30", "result": "207 % of control"}, {"measurement": "survivor count", "setting": "dose: 64.0 mg/kg/injection, schedule: Q01DX001 (ip), vehicle: saline + alcohol", "result": "6 of 6"}, {"measurement": "survivor count", "setting": "dose: 64.0 mg/kg/injection, schedule: Q01DX001 (ip), vehicle: water", "result": "6 of 6"}, {"measurement": "survivor count", "setting": "dose: 64.0 mg/kg/injection, schedule: Q01DX009 (ip), vehicle: saline with Tween-80", "result": "8 of 10"}, {"measurement": "T/C", "setting": "dose: 80.0 mg/kg/injection, schedule: Q01DX001 (ip), vehicle: saline + alcohol, evaluated on day 8", "result": "99 % of control"}, {"measurement": "T/C", "setting": "dose: 80.0 mg/kg/injection, schedule: Q01DX001 (ip), vehicle: saline + alcohol, evaluated on day 30", "result": "88 (3×), 90, 94, 99, 100, 103, 104, 140, 171, 285, 294, 300 % of control"}, {"measurement": "survivor count", "setting": "dose: 80.0 mg/kg/injection, schedule: Q01DX001 (ip), vehicle: saline + alcohol", "result": "5 of 6 (2×) and 6 of 6 (2×)"}, {"measurement": "survivor count", "setting": "dose: 100.0 mg/kg/injection, schedule: Q01DX005 (ip), vehicle: saline with Tween-80", "result": "0 of 6 and 4 of 6"}, {"measurement": "survivor count", "setting": "dose: 125.0 mg/kg/injection, schedule: Q01DX001 (ip), vehicle: saline with Tween-80", "result": "1 of 6 and 6 of 6"}, {"measurement": "survivor count", "setting": "dose: 128.0 mg/kg/injection, schedule: Q01DX001 (ip), vehicle: saline with Tween-80", "result": "2 of 2"}, {"measurement": "survivor count", "setting": "dose: 128.0 mg/kg/injection, schedule: Q01DX001 (oral), vehicle: saline with Tween-80", "result": "5 of 6"}, {"measurement": "survivor count", "setting": "dose: 200.0 mg/kg/injection, schedule: Q01DX005 (ip), vehicle: saline with Tween-80", "result": "0 of 6"}, {"measurement": "survivor count", "setting": "dose: 250.0 mg/kg/injection, schedule: Q01DX001 (ip), vehicle: saline with Tween-80", "result": "0 of 6"}, {"measurement": "survivor count", "setting": "dose: 256.0 mg/kg/injection, schedule: Q01DX001 (oral), vehicle: saline with Tween-80", "result": "0 of 6"}, {"measurement": "survivor count", "setting": "dose: 400.0 mg/kg/injection, schedule: Q01DX005 (ip), vehicle: saline with Tween-80", "result": "0 of 6"}, {"measurement": "survivor count", "setting": "dose: 500.0 mg/kg/injection, schedule: Q01DX001 (ip), vehicle: saline with Tween-80", "result": "0 of 6"}, {"measurement": "survivor count", "setting": "dose: 1000.0 mg/kg/injection, schedule: Q01DX001 (ip), vehicle: saline with Tween-80", "result": "0 of 6"}, {"measurement": "survivor count", "setting": "dose: 2000.0 mg/kg/injection, schedule: Q01DX001 (ip), vehicle: saline with Tween-80", "result": "0 of 6"}]}]}
